Measurements reported in US20230279091A1.
These are yes or no findings as the source states them, for the method shown. Some results given as binding are weak or reduced against the parent protein; the word gives no strength.

By UniProt entry, the sequences of proteins in these tests, tags left out. Residues count along the entry.
UniProt P48094, residues 77-233: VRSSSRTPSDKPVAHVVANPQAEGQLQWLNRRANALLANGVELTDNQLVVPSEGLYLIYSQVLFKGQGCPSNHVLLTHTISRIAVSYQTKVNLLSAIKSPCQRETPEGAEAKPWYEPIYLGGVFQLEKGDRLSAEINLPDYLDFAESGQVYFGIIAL
UniProt P79337, residues 77-233: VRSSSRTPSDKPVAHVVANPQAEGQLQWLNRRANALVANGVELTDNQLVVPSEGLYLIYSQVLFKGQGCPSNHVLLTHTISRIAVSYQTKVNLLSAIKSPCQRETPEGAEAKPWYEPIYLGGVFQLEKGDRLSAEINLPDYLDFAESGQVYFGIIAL

Assays:
[1] = target: Rhesus monkey TNFα (Rhesus monkey (Macaca mulatta)) (UniProt P48094); assay: L929 neutralisation (SPR nd)
[2] = target: recombinant Cynomolgus monkey TNFα (Cynomolgus monkey (Macaca fascicularis)) (UniProt P79337); assay: L929 neutralisation (SPR nd)

- binding [1]: binds
- binding [2]: binds
B1: humanized scFv 16-22-H05-sc04 (CDR/STR) (scFv)
scFv: MDIQMTQSPSSLSASVGDRVTITCQASQSIFSGLAWYQQKPGKAPKLLIYGASKLASGVPSRFSGSGSGTEFTLTISGLQPADFATYYCQSYYYSSSSSDGSYAFGGGTKLTVLGGGGGSGGGGSGGGGSGGGGSEVQLVESGGGLVQPGGSLRLSCKASGIDFNNYGIGWVRQAPGKGLEWITYIYPGFAITNFANSVKGRFTISSDNSKNTVYLQMNSLRAEDTAVYYCARDPVYATSSGYFDLWGQGTLVTVSS
